PubChem BioAssay AID652243 | Drosophila RNAi Screening Center, 2013
Assay: 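Fly regulators of androgen-dependent reporter output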 (primary screen). Cells: Drosophila S2R+ cells. Knock-down reagent: long dsRNA against Drosophila genes. Time to read-out: 72 h (48 h, then 24 h hormone). Treatment: synthetic androgen R1881 at 10 nM for 24 h. Measured: 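Firefly light from an androgen-responsive reporter and Renilla control light per well, raw and unnormalised, for each of two replicates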. Direction: firefly reporter light: higher = more light from androgen-responsive reporter; Renilla control light: higher = more constitutive control signal (cell number, transfection). Active means: 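Across duplicate plates, a knock-down whose log firefly/Renilla ratio shifted a set fold down or up from the GFP/LacZ control mean was a hit; the downward cut appears as both 1.5 and 3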. Meaning of the calls: active = hit: reporter lowered or raised; inactive = no hit.
In all, the deposit lists about 24,000 reagents; this is an unselected part of those with a known target gene and a result. Over the whole deposit, 246 (1%) were called active. 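Plates not normalised; calls are printed but the firefly/Renilla ratio behind them is not deposited; fold cut for lowering reported inconsistently.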 Raw values are not corrected between plates. The numbers tell different reagents against one gene apart. A plus sign joins genes that one reagent is predicted to hit. Not given: the amount of reagent.

target,dsRNA no.,"firefly reporter light, replicate 1","firefly reporter light, replicate 2","Renilla control light, replicate 1","Renilla control light, replicate 2",Call
Dfd,1,1.36e5,1.62e5,2.14e6,2.76e6,inactive
Dfd,2,7.27e5,4.93e5,1.87e6,1.03e6,inactive
Cwc25,1,2.71e5,2.90e5,8.14e5,5.81e5,inactive
CG6168,1,2.06e5,1.79e5,2.12e6,2.00e6,inactive
Cyp6a17,1,1.71e6,1.86e6,3.08e6,3.02e6,inactive
CG3706,1,4.28e5,2.78e5,6.32e6,3.68e6,inactive
CG33229,1,80802,1.40e5,3.18e5,3.72e5,inactive
CG33229,2,6.68e5,7.28e5,1.19e6,1.43e6,inactive
Syt14,1,94705,86186,2.07e6,1.44e6,inactive
CG30177,1,5.22e5,5.86e5,8.21e5,8.33e5,inactive
Ccdc39,1,1.08e5,1.66e5,2.07e6,2.22e6,inactive
CG3107,1,1.25e6,9.80e5,2.29e6,1.63e6,inactive
CG9705,1,56371,72919,9.75e5,8.36e5,inactive

Continued (2 carried over from the part before).
target,dsRNA no.,"firefly reporter light, replicate 1","firefly reporter light, replicate 2","Renilla control light, replicate 1","Renilla control light, replicate 2",Call
CG3107,1,1.25e6,9.80e5,2.29e6,1.63e6,inactive
CG9705,1,56371,72919,9.75e5,8.36e5,inactive
CG30289,1,1.38e5,2.11e5,5.24e5,5.81e5,inactive
scpr-A + scpr-C,1,99609,1.07e5,2.07e6,2.21e6,inactive
Bet1,1,2.80e5,1.76e5,1.43e6,1.19e6,inactive
Cirl,1,2.74e5,2.82e5,1.09e6,1.43e6,active
Cirl,2,3.36e5,5.02e5,9.80e5,1.34e6,inactive
CG11696,1,97616,75871,8.85e5,7.60e5,inactive
CG15643,1,3.91e5,3.73e5,2.90e6,3.29e6,inactive
CG15643,2,3.78e5,2.50e5,9.73e5,5.45e5,inactive
lectin-24Db,1,7.92e5,8.71e5,2.24e6,2.48e6,inactive
CG34112,1,1.29e5,1.07e5,2.30e6,2.60e6,inactive
CG1368,1,1.12e5,81951,6.51e5,3.86e5,inactive
CG1368,2,8.04e5,9.62e5,1.59e6,1.51e6,inactive
CG1368,3,9.87e5,1.03e6,2.05e6,2.12e6,inactive
